The source of these data is publication PMC3977970.

The chains behind the UniProt entries cited, without tags or fusion partners.
UniProt Q9Y6J8: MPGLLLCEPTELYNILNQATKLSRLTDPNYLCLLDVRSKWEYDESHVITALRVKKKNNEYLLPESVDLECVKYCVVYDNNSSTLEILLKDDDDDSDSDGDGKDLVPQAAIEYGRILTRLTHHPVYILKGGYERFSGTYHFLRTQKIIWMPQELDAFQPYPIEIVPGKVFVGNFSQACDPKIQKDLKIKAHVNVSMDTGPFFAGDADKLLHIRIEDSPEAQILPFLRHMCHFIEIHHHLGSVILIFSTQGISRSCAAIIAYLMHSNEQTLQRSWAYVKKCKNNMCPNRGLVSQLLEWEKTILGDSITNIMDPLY

No constants are given. Whether binding was seen depends on the method and setting. Binding seen in cells or lysates may run through a third protein. These calls come from enrichment with a bait or labelling near it, and not all partners need be listed.

The assay concerns the target TAP-epitope-tagged MK-STYX (human) (UniProt Q9Y6J8). Description: affinity purification with mass spectrometry; tandem affinity purification (two steps) of N- or C-terminally TAP-tagged MK-STYX from HeLa cells, each in triplicate; SDS-PAGE, in-gel trypsin digest, LC-MS/MS; filtered against ~350 control TAP experiments.

B1: PTPMT1 (PTP localized to mitochondrion 1), endogenous (protein, UniProt Q8WUK0-1 28-201)
chain: KVPGRAHRDWYHRIDPTVLLGALPLRSLTRQLVQDENVRGVITMNEEYETRFLCNSSQEWKRLGVEQLRLSTVDMTGIPTLDNLQKGVQFALKYQSLGQCVYVHCKAGRSRSATMVAAYLIQVHKWSPEEAVRAIAKIRSYIHIRPGQLDVLKEFHKQITARATKDGTFVISKT
Take B1: the binding result is reported as “binds”.
